Common to all, as to assay: protein microarray (ProtoArray v5.0), streptavidin-Alexa Fluor 647
Common to all, as to details: 3'-biotin; 20 mM Tris (pH 7.5), 5 mM MgCl2, 100 mM KCl, 0.1% Tween-20, A/T-rich and random oligonucleotide blockers; temperature not stated; high values mean tight binding

The target of one assay is FNTB (UniProt P49356).
The next assay relates to FOLR2 (human).
In a further assay the test system is FOXJ2 (human).
In a further assay the test system is FOXP1 (human).
In the next assay the test system is FOXP4 (human).
The subject of the next assay is FREQ (human).
In the next assay the test system is FRMD3 (human).
A further assay concerns FRMD4A (human).
The test system of a further assay is FRMD8 (human).
In another assay the test system is FRS3 (human).
The test system of another assay is FSD1L (human).
A further assay relates to FST (human).
A further assay deals with FTH1 (human).
In the next assay the test system is FTL (human).
A further assay relates to FUCA1 (human).
A further assay deals with FUNDC2 (human).
Another assay deals with T1, FUT10 (UniProt Q6P4F1).
T1 sequence: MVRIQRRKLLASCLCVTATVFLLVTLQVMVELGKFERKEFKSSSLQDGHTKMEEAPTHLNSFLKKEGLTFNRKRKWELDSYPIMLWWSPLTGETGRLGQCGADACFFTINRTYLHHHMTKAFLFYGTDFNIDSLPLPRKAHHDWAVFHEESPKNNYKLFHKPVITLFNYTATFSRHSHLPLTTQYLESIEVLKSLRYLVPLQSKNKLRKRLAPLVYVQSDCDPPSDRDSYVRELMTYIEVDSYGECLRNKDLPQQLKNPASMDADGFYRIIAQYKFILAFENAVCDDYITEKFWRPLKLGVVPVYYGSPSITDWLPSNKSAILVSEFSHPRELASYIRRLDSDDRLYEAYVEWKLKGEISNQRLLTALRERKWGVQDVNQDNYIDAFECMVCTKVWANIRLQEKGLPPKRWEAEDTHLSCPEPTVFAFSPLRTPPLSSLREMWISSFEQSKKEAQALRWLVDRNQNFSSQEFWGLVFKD

For the next assay, the system named is FUT2 (human).
Another assay relates to FVT1 (human).
The next assay concerns FXC1 (human).

Several values for one entry are separate records, joined by “and”; a condition that tells them apart may be missing. Equal values may be shown once. The list shows a part of the results. For some assays here: Construct or isoform of the protein are uncertain.

For “GGGAGGCTGAGGCAGG [G4-1 biotinylated (PQS2)]”, the binding signal in the assay with FNTB was -0.321 z-score; in the assay on FOLR2 (human), -0.313 z-score; in the assay with FOXJ2 (human), -0.312 z-score; in the assay on FOXP1 (human), -0.347 z-score; with FOXP4 (human), -0.319 z-score; in the assay on FREQ (human), -0.352 z-score. The binding signal with FRMD3 (human) was -0.3 z-score; in the assay on FRMD4A (human) it was -0.279 z-score; in the assay on FRMD8 (human), -0.335 z-score; in the assay with FRS3 (human), -0.334 z-score; in the assay on FSD1L (human) it was -0.283 z-score; in the assay with FST (human), -0.338 z-score. The binding signal in the assay with FTH1 (human) is -0.285 z-score; with FTL (human), -0.332 z-score and -0.351 z-score; with FUCA1 (human) it was -0.309 z-score; with FUNDC2 (human), -0.331 z-score; with FUT10, -0.237 z-score; in the assay with FUT2 (human) it was -0.318 z-score. Also, the binding signal is -0.28 z-score with FVT1 (human) and -0.349 z-score in the assay on FXC1 (human).
